Among the data in article PMC12485380 are binding values, retold here.

Sequences of proteins named here, by UniProt entry; tags and fusion partners are left off.
UniProt P05556: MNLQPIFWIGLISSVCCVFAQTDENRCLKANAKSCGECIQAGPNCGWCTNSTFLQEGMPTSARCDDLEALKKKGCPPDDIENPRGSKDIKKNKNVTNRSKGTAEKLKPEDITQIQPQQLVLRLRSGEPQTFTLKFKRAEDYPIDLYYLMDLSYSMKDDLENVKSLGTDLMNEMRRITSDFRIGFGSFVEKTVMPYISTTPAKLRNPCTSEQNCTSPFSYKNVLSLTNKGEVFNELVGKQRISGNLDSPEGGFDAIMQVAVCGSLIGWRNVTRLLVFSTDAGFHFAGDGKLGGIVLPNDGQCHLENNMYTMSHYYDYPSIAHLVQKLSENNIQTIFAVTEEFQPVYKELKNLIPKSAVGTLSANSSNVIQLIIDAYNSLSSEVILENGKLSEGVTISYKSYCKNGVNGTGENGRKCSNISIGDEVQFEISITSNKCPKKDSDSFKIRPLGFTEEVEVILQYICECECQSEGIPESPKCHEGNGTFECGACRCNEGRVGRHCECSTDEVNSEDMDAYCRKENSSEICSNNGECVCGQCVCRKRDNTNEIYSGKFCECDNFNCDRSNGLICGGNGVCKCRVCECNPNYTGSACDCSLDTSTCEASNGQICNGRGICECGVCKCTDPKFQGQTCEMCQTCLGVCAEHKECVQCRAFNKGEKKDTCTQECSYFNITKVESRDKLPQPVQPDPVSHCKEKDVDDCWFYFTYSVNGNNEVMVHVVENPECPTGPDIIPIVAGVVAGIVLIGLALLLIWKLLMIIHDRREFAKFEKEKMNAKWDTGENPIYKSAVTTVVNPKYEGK
UniProt Q12809: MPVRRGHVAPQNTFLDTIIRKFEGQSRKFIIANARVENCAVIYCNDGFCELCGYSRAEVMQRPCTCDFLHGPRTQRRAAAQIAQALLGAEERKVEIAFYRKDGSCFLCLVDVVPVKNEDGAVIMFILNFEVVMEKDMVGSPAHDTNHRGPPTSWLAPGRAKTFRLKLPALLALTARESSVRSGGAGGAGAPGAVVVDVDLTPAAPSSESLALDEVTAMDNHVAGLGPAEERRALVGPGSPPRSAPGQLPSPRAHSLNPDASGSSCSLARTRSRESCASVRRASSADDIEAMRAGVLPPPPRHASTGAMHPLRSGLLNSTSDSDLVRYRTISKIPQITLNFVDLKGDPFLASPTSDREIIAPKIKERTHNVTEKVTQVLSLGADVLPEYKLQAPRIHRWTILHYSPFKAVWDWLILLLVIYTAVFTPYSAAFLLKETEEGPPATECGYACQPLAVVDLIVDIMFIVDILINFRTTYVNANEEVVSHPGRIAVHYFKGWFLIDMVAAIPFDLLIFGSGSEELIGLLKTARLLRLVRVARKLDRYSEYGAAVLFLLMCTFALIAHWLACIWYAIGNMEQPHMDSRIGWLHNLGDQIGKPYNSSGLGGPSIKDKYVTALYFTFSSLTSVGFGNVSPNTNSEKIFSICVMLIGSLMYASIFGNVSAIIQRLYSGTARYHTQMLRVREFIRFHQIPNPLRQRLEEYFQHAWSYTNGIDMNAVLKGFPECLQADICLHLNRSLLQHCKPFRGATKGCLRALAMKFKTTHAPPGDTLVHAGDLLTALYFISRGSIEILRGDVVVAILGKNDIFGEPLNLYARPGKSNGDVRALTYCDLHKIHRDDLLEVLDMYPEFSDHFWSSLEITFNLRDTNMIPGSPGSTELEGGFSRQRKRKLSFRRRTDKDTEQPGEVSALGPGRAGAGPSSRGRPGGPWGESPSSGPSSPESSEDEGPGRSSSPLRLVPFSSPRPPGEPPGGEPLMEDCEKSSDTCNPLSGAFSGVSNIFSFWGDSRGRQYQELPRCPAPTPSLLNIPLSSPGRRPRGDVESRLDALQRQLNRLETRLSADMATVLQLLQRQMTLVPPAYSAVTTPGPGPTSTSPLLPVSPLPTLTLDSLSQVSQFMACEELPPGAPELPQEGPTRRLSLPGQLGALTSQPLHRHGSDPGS

These are yes or no findings as the source states them, for the method shown. Binding seen in cells or lysates may run through a third protein. Some binding calls cover weakened binding; strength is not graded here.

The experiment concerns the target β1 integrin (endogenous) (human (endogenous in HEK293-derived, MCF10A, MCF 7, MDA-MB-231, U2932 cells)) (UniProt P05556). Kind of experiment: co-IP; 1.5 mg of NP-40 lysate precleared with Protein A/G beads; β1 integrin immunoprecipitated with the TS2/16 antibody; hERG1 detected by Western blot. In general terms: Immunoblotting shows a protein as a band on a membrane.

For the substance “hERG1 (endogenous) (from UniProt Q12809 1-1159)”, the binding entry was “binds”.
Turning to “hERG1 stably transfected in HEK293 cells (HEK-hERG1) (from UniProt Q12809 1-1159)”, the binding entry is given as “binds”.
